{
  "sequences": {"note": "The chains behind the UniProt entries cited, without tags or fusion partners. Residues count along the entry.", "UniProt Q08345, residues 19-913": "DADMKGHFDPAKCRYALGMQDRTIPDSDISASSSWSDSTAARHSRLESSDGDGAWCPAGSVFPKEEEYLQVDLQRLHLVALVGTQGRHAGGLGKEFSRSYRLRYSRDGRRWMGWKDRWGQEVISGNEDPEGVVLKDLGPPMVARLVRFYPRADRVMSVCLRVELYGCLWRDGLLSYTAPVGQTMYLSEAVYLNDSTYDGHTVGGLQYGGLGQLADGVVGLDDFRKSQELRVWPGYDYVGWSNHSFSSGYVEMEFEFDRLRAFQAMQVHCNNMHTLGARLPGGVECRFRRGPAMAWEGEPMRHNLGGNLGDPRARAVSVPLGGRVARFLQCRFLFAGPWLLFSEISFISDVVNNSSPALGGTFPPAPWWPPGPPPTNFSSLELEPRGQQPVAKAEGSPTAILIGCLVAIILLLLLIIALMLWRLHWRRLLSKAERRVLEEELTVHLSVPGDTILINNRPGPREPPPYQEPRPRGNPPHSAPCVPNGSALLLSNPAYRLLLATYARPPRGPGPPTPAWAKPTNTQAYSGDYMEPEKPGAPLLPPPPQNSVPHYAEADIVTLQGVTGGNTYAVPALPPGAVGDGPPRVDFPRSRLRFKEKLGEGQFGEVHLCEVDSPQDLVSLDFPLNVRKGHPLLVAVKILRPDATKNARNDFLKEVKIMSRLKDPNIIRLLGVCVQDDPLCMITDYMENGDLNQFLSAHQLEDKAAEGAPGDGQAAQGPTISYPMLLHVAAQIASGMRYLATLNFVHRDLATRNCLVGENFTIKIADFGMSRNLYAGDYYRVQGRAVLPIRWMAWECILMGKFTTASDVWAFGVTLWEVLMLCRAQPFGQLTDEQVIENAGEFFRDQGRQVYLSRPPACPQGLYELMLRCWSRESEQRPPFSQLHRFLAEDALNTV", "UniProt P97434": "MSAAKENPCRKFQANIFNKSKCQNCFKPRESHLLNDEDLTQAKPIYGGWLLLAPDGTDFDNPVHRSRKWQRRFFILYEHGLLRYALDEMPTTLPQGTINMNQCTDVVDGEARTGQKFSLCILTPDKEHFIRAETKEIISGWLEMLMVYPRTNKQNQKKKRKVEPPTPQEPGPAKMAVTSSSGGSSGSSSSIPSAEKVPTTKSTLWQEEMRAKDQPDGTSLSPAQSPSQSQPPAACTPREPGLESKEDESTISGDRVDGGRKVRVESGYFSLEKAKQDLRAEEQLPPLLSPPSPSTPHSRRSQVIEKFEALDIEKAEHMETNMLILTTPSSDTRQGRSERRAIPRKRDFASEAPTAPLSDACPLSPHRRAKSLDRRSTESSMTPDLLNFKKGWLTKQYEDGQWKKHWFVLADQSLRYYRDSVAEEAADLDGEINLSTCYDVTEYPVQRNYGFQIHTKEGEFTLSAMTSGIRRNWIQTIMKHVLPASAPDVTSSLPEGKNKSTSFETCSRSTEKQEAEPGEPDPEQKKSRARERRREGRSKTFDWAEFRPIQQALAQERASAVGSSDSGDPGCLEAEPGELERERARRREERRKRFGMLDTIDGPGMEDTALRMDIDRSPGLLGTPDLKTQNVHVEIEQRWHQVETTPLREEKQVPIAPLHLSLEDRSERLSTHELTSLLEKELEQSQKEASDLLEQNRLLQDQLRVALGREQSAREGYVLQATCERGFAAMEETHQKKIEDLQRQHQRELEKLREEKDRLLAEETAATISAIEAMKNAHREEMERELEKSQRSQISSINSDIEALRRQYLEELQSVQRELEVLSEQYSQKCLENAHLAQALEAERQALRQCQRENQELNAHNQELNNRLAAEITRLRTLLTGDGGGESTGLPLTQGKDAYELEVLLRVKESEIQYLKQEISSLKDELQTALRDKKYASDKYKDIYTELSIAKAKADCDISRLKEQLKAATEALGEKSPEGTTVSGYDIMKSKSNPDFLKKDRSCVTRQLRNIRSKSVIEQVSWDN"},
  "source": "paper PMC7407560",
  "target": "DDR1 (b-isoform) stably overexpressed in GD25 cells (GD25 OE) (UniProt Q08345)",
  "experiment": "affinity purification with mass spectrometry; DDR1 immunoprecipitated with a C-terminal anti-DDR1 antibody on DynaBeads from lysates of GD25 WT and GD25 OE cells plated on collagen or fibronectin for 1 or 8 h; TMT-labelled, LC-MS/MS",
  "note": "These are yes or no findings as the source states them, for the method shown. Binding seen in cells or lysates may run through a third protein. These calls come from enrichment with a bait or labelling near it, and not all partners need be listed.",
  "data": [
    {"substance": "myosin phosphatase Rho-interacting protein (MRIP) (from UniProt P97434 1-1024)", "values": [
      {"measurement": "binding", "value": "binds"}
    ]}
  ]
}
